Measured values: patent publication US20150368611

Tests used:
C/EBPβ (Mus musculus) = biological target: T1, C/EBPβ (Mus musculus) (UniProt P28033); test: EMSA; details: 5mC at the CpG of CRE (TGAmCGTCA) on both strands; robust binding, completely shifted by anti-C/EBPβ; 10 mM HEPES pH 7.9, 80 mM KCl, 1 mM MgCl2, poly(dI-dC), room temperature; protein in a lysate after overexpression; label: 32P 5' end
T1 sequence (looked up): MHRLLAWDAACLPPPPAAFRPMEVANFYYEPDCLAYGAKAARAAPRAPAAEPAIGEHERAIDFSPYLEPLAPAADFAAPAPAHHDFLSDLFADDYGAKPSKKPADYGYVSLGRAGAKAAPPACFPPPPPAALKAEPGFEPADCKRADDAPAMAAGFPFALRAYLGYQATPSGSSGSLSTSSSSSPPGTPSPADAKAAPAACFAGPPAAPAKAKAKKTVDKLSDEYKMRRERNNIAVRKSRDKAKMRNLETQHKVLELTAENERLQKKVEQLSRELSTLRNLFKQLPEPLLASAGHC

RORγt (Mus musculus) = tested on: T2, RORγt (Mus musculus); test: EMSA; details: binding completely abolished by co-expression of C/EBPβ; protein in a lysate after overexpression; protein details: mouse cDNA from TH17 cells, nuclear extract; label: 32P 5' end
T2 sequence (looked up, limits assumed): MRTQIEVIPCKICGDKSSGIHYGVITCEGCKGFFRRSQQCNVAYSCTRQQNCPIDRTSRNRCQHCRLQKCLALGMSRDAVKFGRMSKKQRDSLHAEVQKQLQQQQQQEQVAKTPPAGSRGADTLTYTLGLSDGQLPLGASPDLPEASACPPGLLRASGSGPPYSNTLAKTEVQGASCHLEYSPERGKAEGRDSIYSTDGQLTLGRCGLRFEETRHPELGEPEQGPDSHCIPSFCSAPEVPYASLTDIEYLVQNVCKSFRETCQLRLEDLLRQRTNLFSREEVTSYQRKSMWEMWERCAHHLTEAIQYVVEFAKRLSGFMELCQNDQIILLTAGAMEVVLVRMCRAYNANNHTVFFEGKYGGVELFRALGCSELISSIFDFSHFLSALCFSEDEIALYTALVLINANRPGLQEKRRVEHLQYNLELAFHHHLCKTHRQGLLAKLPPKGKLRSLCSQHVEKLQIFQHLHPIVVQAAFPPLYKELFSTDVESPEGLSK

| Sequence | binding result (C/EBPβ (Mus musculus)) | binding result (RORγt (Mus musculus)) |
| --- | --- | --- |
| CCGGCCGCCATGACGTCAATGGCAGAAA (double strand) [Foxp3 TSDR methyl-CRE probe] | binds | – |
| GAAAGTTTTCTGACCCACTTTAAATCAATTT (double strand) [RORE in IL17 CNS2 probe] | – | binds |

At least one result comes from cells or an extract, where the contact may be indirect. Where a protein sequence is shown, tags need not be part of it.
